Source: article PMC11050548
No constants are given. Whether binding was seen depends on the method and setting. In cells and extracts the contact can be indirect. A result given as binding can be weak or reduced; the word gives no strength.

Sequences of proteins named here, by UniProt entry; tags and fusion partners are left off. A change or cut given only in a name is not applied to a line headed by its entry.
UniProt Q9Y5K8: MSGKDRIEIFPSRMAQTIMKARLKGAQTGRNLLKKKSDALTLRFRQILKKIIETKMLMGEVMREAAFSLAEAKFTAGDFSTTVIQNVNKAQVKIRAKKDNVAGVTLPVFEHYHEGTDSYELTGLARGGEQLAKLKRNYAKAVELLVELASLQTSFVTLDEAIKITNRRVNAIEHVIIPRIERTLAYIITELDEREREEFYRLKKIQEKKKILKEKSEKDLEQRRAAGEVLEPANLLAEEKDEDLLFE
UniProt Q676U5: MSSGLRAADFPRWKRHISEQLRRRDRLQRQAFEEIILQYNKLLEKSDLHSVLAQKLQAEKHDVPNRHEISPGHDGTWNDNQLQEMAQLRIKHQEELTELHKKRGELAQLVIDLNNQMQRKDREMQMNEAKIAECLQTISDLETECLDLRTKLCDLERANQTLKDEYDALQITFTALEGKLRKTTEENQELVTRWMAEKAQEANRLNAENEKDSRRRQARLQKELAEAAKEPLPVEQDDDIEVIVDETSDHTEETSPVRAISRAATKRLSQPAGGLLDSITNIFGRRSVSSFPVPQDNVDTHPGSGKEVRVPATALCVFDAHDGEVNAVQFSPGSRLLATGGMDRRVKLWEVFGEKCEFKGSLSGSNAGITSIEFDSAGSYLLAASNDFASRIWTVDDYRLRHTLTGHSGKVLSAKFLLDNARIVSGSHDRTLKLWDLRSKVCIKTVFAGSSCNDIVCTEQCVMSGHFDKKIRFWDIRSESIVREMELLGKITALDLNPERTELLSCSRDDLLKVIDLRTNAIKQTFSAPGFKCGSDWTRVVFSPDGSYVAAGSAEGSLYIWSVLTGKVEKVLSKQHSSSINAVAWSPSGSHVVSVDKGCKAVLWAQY

Target: ATP6V1D (human (endogenous in HeLa)) (UniProt Q9Y5K8)
Experiment: co-IP; immunoprecipitation of ATP6V1D from cell lysates, blot for ATG16L1 and ATP6V1D; cells treated with 2 uM Torin1, 10 uM AMDE-1 or 10 uM niclosamide for 6 h (Figure 6I) or 20 uM AMDE-1 for 3 h (Figure 7J); IP lysis buffer 50 mM Tris-HCl pH 7.4, 1% TritonX-100, 150 mM NaCl, 1 mM EDTA

## GFP-ATG16L1^ΔWD2 (from UniProt Q676U5)
  binding: binds weakly
